Source: PubChem BioAssay AID1259405 (NCATS, 2018)
In all, the deposit lists about 50,000 reagents; shown is a random part of them. Of all reagents, about 4,000 (8%) are marked active. 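Mouse siRNA library applied to hamster cells; one well for each siRNA.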 The numbers tell different reagents against one gene apart.

Aim: 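Knock-downs that lift recombinant protein yield in hamster ovary cells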 (primary screen)
Cells: Chinese hamster CHO-K1 ovary cells with stable secreted eGFP expression
Reagents: single siRNA against mouse genes, 0.8 pmol siRNA per well (2 µl of 400 nM stock)
Time to read-out: 3 days
Measurement: 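Per-well intracellular GFP measured by laser scanning cytometry, plus viability from ATP luminescence, each relative to plate median of non-targeting control wells, in %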
Direction: GFP, % of control: higher = more GFP per well, higher productivity; viability (ATP), % of control: higher = more viable cells (more ATP)
Active means: 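a knock-down is called active if GFP reaches 120% or more of non-targeting control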

gene symbol | reagent no. | GFP, % of control | viability (ATP), % of control | outcome
Nln | 1 | 62.4 | 68.7 | inactive
Nln | 2 | 75.4 | 63.9 | inactive
Nln | 3 | 27.5 | 31.2 | inactive
Orc6 | 1 | 102 | 80.2 | inactive
Orc6 | 2 | 62.2 | 65 | inactive
Orc6 | 3 | 74.9 | 71.1 | inactive
Rpl35a | 1 | 78.1 | 70.3 | inactive
Rpl35a | 2 | 106 | 65.4 | inactive
Rpl35a | 3 | 22 | 24.8 | inactive
Col4a4 | 1 | 95.8 | 101 | inactive
Col4a4 | 2 | 46.2 | 31.7 | inactive
Col4a4 | 3 | 109 | 114 | inactive
Tcp10a | 1 | 50.1 | 66 | inactive
Tcp10a | 2 | 94.1 | 113 | inactive
Tcp10a | 3 | 26.4 | 42.3 | inactive
Sprr2k | 1 | 129 | 112 | active
Sprr2k | 2 | 94.9 | 85.7 | inactive
Slc19a1 | 1 | 71.2 | 104 | inactive
Slc19a1 | 2 | 90.1 | 78.6 | inactive
Slc19a1 | 3 | 83.4 | 96 | inactive
Spin2c | 1 | 80.3 | 74.3 | inactive
Spin2c | 2 | 69.2 | 72.3 | inactive
Spin2c | 3 | 94.9 | 115 | inactive
Naprt | 1 | 122 | 108 | active
Naprt | 2 | 71 | 65.6 | inactive
Naprt | 3 | 70.6 | 63.9 | inactive
Prpf19 | 1 | 113 | 124 | inactive
Prpf19 | 2 | 83.9 | 91.9 | inactive
Pygb | 1 | 68.5 | 72 | inactive
Pygb | 2 | 83.1 | 99.9 | inactive
Pygb | 3 | 52.6 | 50.4 | inactive
Fuom | 1 | 78.4 | 62.6 | inactive
Fuom | 2 | 20.9 | 22.5 | inactive
Fuom | 3 | 60.6 | 87.2 | inactive
Sult1c2 | 1 | 139 | 151 | active
Sult1c2 | 2 | 87.6 | 77.3 | inactive
Sult1c2 | 3 | 92.3 | 45.5 | inactive
Prss30 | 1 | 67.5 | 85.1 | inactive
Prss30 | 2 | 55.9 | 74.8 | inactive
Prss30 | 3 | 73.6 | 94 | inactive
Lgals12 | 1 | 88.9 | 63.6 | inactive
Lgals12 | 2 | 114 | 68.3 | inactive
Lgals12 | 3 | 41 | 63.1 | inactive
Tomm70a | 1 | 110 | 117 | inactive
Tomm70a | 2 | 74.2 | 74.1 | inactive
Ccna2 | 1 | 83.8 | 85 | inactive
Ccna2 | 2 | 94.4 | 93.3 | inactive
Upk3a | 1 | 90.9 | 50.2 | inactive
Upk3a | 2 | 31.9 | 62.6 | inactive
Upk3a | 3 | 82.3 | 88.7 | inactive
Mrgpre | 1 | 11.3 | 11 | inactive
Mrgpre | 2 | 79 | 83.8 | inactive
Mrgpre | 3 | 77 | 91.1 | inactive
Ndp | 1 | 127 | 61.4 | active
Ndp | 2 | 60.9 | 83.8 | inactive
Ndp | 3 | 68.5 | 81.3 | inactive
Spz1 | 1 | 66.3 | 63 | inactive
Spz1 | 2 | 52.5 | 66.1 | inactive
Spz1 | 3 | 71.2 | 66.9 | inactive
Zfp663 | 1 | 79.2 | 76.5 | inactive
Zfp663 | 2 | 69.5 | 60.9 | inactive
Zfp663 | 3 | 71.6 | 76.6 | inactive
Skic8 | 1 | 69.7 | 102 | inactive
Skic8 | 2 | 88.9 | 95.7 | inactive
Skic8 | 3 | 98.4 | 115 | inactive
Morf4l2 | 1 | 71.9 | 71.2 | inactive
Morf4l2 | 2 | 73.2 | 80.5 | inactive
Morf4l2 | 3 | 57.9 | 58.1 | inactive
Hjurp | 1 | 131 | 153 | active
Hjurp | 2 | 70.9 | 92.4 | inactive
Hjurp | 3 | 92.4 | 116 | inactive
Nsmce2 | 1 | 85.7 | 109 | inactive
Nsmce2 | 2 | 92.5 | 60.7 | inactive
Nsmce2 | 3 | 38.6 | 45.8 | inactive
Dpm2 | 1 | 86.2 | 101 | inactive
Dpm2 | 2 | 36.4 | 46.1 | inactive
Ntn3 | 1 | 153 | 122 | active
Ntn3 | 2 | 152 | 91.4 | active
Ube2k | 1 | 54.1 | 34.5 | inactive
Ube2k | 2 | 86.3 | 81.3 | inactive
Ube2k | 3 | 79.9 | 102 | inactive
Ndufaf5 | 1 | 110 | 124 | inactive
Ndufaf5 | 2 | 46.7 | 38.8 | inactive
Ndufaf5 | 3 | 58.4 | 60.1 | inactive
